Laboratory results from patent US20260209256A1, “PHOSPHINE OXIDE-BASED PHOTOINITIATORS” (Arkema France, priority 2022, published 2026).

Assay: Extractables from cured films (HPLC-MS)
Settings: 50 μm cured film, 60° C. for 10 days
[1] = Extraction Solvent Acetonitrile

Structure (SMILES) | Concentrations of extractables (ppm) Mesitaldehyde [1] | Concentrations of extractables (ppm) Mesitaldehyde (Extraction Solvent Ethanol)
Cc1cc(C)c(C(=O)P(=O)(c2ccccc2)c2ccccc2)c(C)c1 [SpeedCure TPO, 2,4,6-trimethylbenzoyl diphenyl phosphine oxide] | 293 ppm | 316 ppm
Cc1cc(C)c(C(=O)P(=O)(C(=O)c2c(C)cc(C)cc2C)c2ccccc2)c(C)c1 [Speedcure BPO, bis-(2,4,6-trimethylbenzoyl)phenyl phosphine oxide] | 713 ppm | 656 ppm
CCOP(=O)(C(=O)c1c(C)cc(C)cc1C)c1ccccc1 (stereo not drawn) [Speedcure TPO-L, Ethyl (2,4,6-trimethylbenzoyl)phenyl phosphinate] | 396 ppm | 413 ppm
